Results reported in doi:10.1101/2023.04.29.538801.
These are yes or no findings as the source states them, for the method shown. In cells and extracts the contact can be indirect. Some binding calls cover weakened binding; strength is not graded here. Sequences can lack the tags named with a protein.

Molecular target: T1, human Adgrd1 with a C-terminal Flag epitope (human) (UniProt Q6QNK2)
T1 sequence: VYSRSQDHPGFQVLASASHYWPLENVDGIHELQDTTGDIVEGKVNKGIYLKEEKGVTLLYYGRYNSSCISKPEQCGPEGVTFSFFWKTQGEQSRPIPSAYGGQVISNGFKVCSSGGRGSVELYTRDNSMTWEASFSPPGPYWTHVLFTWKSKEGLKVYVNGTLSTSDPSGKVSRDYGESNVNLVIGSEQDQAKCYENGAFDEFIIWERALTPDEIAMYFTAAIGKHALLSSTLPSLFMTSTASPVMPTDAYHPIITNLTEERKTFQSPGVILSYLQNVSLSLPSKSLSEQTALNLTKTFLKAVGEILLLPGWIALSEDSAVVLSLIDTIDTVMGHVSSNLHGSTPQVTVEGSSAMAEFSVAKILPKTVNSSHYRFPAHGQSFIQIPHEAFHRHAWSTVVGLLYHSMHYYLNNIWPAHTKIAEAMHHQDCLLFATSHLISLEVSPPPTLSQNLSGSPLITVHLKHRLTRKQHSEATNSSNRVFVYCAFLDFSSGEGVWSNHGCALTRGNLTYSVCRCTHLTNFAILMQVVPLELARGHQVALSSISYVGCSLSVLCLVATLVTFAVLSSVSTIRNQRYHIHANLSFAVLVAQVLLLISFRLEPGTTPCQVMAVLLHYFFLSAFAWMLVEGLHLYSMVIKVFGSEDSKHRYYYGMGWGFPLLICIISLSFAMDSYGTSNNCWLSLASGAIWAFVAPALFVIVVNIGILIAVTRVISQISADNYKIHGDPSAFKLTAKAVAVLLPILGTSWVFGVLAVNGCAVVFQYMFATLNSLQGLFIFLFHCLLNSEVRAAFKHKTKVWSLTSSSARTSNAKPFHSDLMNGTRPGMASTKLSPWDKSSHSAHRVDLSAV
Assay: co-IP

## recombinant flexible tail of the human prion protein, residues 23-110 (from UniProt P04156 23-110) (domain or fragment)
  binding: binds
